This passage reports binding results from publication PMC6608615.

No constants are given. Whether binding was seen depends on the method and setting. Binding can be weak; no strength is given.

The target of test [1] is T1, Cox2 subunit of N. crassa cytochrome c oxidase (complex IV) (N. crassa (endogenous in mitochondria of strain GR-107)) (UniProt P00411).
T1 sequence: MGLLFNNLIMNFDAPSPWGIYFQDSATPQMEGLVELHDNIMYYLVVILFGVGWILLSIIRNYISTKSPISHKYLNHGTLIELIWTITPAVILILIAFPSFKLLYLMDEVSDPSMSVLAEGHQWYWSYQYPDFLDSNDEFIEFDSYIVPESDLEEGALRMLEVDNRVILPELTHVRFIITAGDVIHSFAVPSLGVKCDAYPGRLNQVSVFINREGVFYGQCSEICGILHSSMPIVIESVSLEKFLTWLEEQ
The test is described as follows: cryo-EM structure; complex IV purified from N. crassa mitochondria (1% DDM, nickel IMAC without an affinity tag), reconstituted into MSP2N2 lipid nanodiscs (POPC, POPE, cholesterol), Superose 6 gel filtration; single-particle cryo-EM, 300 kV, map at 5.5 Å; subunits assigned by rigid-body fit of the S. cerevisiae model PDB 6hu9; both purified. (In general: In gel filtration, larger molecules generally elute earlier.)

In test [2] the target is Cox4 subunit of N. crassa cytochrome c oxidase (complex IV) (N. crassa (endogenous in mitochondria of strain GR-107)). The description is as above.

Turning to “Cox6b subunit of N. crassa cytochrome c oxidase (complex IV)”, the binding result in test [1] is “binds”.

B1: Cox3 subunit of N. crassa cytochrome c oxidase (complex IV) (protein, UniProt P00422 1-269)
chain: MTNLIRSNFQDHPFHLVSPSPWPLNTSVCLLNLTTTGALSMHNFNNIHYLYYIALIGLVSAMFLWFRDIISEGTFLGDHTLAVQRGLNLGIILFIVSEALFFLAIFWAFFHSALTPTVELGAQWPPIGIEPVNPFELPLLNTVILLSSGATITYAHHALIKGEREGALYGSIATILLAIIFTGFQGVEYSVSSFTISDGAFGTCFFFSTGFHGIHVIIGTIFLAVALWRIFAYHLTDNHHVGFEGGILYWHFVDVVWLFLYISVYYWGS
Consider B1, for which the binding result in test [2] was “binds”.

B2: Cox2 subunit of N. crassa cytochrome c oxidase (complex IV) (protein, UniProt P00411 1-250)
chain: T1 sequence
B2: the binding entry in test [2] is “binds”.
